# The whole screen tested about 220,000 compounds, of which about 770 (0.35%) were called active. The inconclusive results got no clear call from the source; some entries with a clear call stand among them for comparison. No stated cut-off is given here; in the data, active means binding response below about 49% or above about 150%; inconclusive means no clear call, values can overlap the other calls; inactive means in between.
# Sequences of proteins named here, by UniProt entry; tags and fusion partners are left off.
# UniProt P09471, whole entry, looked up: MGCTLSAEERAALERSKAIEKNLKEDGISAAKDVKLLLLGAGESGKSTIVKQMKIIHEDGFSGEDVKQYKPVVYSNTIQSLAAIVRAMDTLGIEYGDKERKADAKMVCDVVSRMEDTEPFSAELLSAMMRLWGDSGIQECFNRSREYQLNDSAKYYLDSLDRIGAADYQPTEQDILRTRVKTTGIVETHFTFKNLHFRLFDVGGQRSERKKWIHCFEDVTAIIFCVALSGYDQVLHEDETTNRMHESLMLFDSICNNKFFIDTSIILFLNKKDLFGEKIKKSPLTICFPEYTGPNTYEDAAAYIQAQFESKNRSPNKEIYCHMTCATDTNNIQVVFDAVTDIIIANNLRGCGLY
# Target: Guanine nucleotide-binding protein G(o) subunit alpha (Homo sapiens) (UniProt P09471)
# Assay: RGS7-Galphao binding modulators, primary screen, biochemical, multiplexed bead flow cytometry (AID 1439);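 further: fluorescent Galphao held in activated GDP-AlF4 state binding bead-coupled RGS7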
# Conditions: at 10 µM, actives lie on both sides
row,Structure (SMILES),binding response (% of control)
1,CC(C)(C)NC(=O)c1ccccc1NC(=O)c1ccc2c(c1)OCO2,inconclusive: 103%
2,O=C(CN1CCOCC1)N/N=C/c1ccc(-c2ccc(Br)cc2)o1,inconclusive: 116%
3,CC(NC(=O)Cn1c(NCCO)nc2ccccc21)C1CC2CCC1C2 (centres undefined),inconclusive: 109%
4,NC(=O)C1CCCN(C(=O)c2ccc(Cl)cc2)C1 (centres undefined),inactive: 97.6%
5,CCOC(=O)c1oc2cc(OC(C)=O)ccc2c(=O)c1-c1ccc(OC)c(OC)c1,inconclusive: 107%
6,COc1cc(/C=C2\SC(=O)NC2=O)ccc1Oc1ccc([N+](=O)[O-])cc1[N+](=O)[O-],inconclusive: 116%
7,NS(=O)(=O)c1ccc(CCNS(=O)(=O)c2ccccc2)cc1,inconclusive: 80.5%
8,CCCCNC(C(=O)Nc1ccc(Cl)c([N+](=O)[O-])c1)c1ccccc1 (centres undefined),inactive: 103%
9,COc1ccc(Nc2cc(Cl)ccc2C(=O)O)cn1,inconclusive: 89.8%
10,CC(=O)N1CC23C=CC(CC2CC12CCCCCC2)O3 (centres undefined),inactive: 94.4%
11,CC[C@H](C)NC(=O)CCCCCn1c(=S)[nH]c2c([nH]c3ccc(OC)cc32)c1=O,inconclusive: 92.8%
12,CCCCCCCc1ccc(C2NC(=S)NC3=C2C(=O)c2ccccc23)cc1 (centres undefined),inconclusive: 65.5%
13,CCCn1nnnc1SCC(=O)Nc1sc(C)c(C)c1C#N,inconclusive: 101%
14,COc1ccc(S(=O)(=O)N2CC(O)C[C@H]2C(=O)OCC(=O)N2CCCCCC2)cc1 (some centres undefined),inconclusive: 86.2%
15,CC(C)(C)c1cc(C(=O)NNc2cccc(Cl)c2)n(Cc2ccccc2)n1,inconclusive: 84.9%
16,Cc1nc(S/C(C(=O)O)=C2/C(=O)Nc3ccccc32)n[nH]1,inconclusive: 81.4%
17,C/C(=N/Nc1nc(-c2ccccc2F)nc2ccccc12)c1ccccc1O,inconclusive: 106%
18,Cc1c(C(=O)/C=C/N(C)C)nnn1-c1ccc(Cl)cc1C#N,inconclusive: 87.5%
19,CN1CCC(NC(=O)Nc2ccc(Br)cc2)CC1,inconclusive: 98.9%
20,CCNc1c([N+](=O)[O-])c(=O)n(CC)c2ccccc12,inconclusive: 226%
21,CC(=O)NCCCc1nc2ccccc2n1Cc1ccccc1F,inconclusive: 109%
22,O=C(O)CC(CC(=O)Nc1ccc(C(=O)O)cc1)c1ccccc1 (centres undefined),inconclusive: 101%
23,CCOc1ccc2[nH]cc(S(=O)(=O)c3ccc(Cl)cc3)c(=O)c2c1,inconclusive: 113%

row,Structure (SMILES),binding response (% of control)
1,Cc1cc(NC(=O)CSc2nnc(-c3ccc(O)cc3)o2)no1,inconclusive: 115%
2,Cc1n[nH]c(=S)n(NC(=O)CC(=O)Nn2c(=S)[nH]nc(C)c2=O)c1=O,inconclusive: 87.6%
3,Oc1cc(Br)ccc1C=Nc1ccc(N2CCCCC2)cc1,inconclusive: 79%
4,COc1cc(NC(=O)c2csc(N)n2)cc(C(=O)Nc2cccc(C(F)(F)F)c2)c1,inconclusive: 102%
5,Cc1ccc(C(=O)NN2C(=O)C3C4C=CC(C4)[C@@H]3C2=O)cc1 (some centres undefined),inconclusive: 101%
6,O=C(Nc1ccc(F)cc1)Nc1sccc1-c1nc2ccccc2s1,inconclusive: 98.2%
7,COc1ccc(CNC(=O)NCc2ccc(OC)c(OC)c2)cc1OC,active: 157% [activator]
8,CC(=O)NC(CC(=O)OCC(=O)c1c(N)n(C)c(=O)n(C)c1=O)c1ccccc1 (centres undefined),inconclusive: 115%
9,O=C(Nc1ccc([N+](=O)[O-])cc1)Nc1ccc(OC(F)F)c(Cl)c1,inactive: 95.1%
10,Cc1c(CN2CCCC(C(=O)c3cccc(Cl)c3)C2)c(=O)n(-c2ccccc2)n1C (centres undefined),active: 230% [activator]
11,COCCSc1nnc(NC(=O)c2ccc3c(c2)OCO3)s1,inconclusive: 103%
12,CCOc1ccc(S(=O)(=O)NCCCN2CCCC2=O)cc1,inconclusive: 89%
13,COc1ccc(C2CC(c3ccc(Br)cc3)=NN2C(=O)CN2CCCC2)cc1 (centres undefined),inconclusive: 8.19%
14,On1nnc2ccccc21,inconclusive: 69.8%
15,O=c1c(O)cccc2cc(O)c(O)c(O)c12,inconclusive: 163%
16,CCOC(=O)c1ccc2c(c1)NCc1cccc(OC)c1O2,inconclusive: 66.5%
17,CCOC(=O)N1CCN(C(=O)C2c3cc(OC)c(OC)cc3C(=O)N3CCc4ccccc4C23)CC1 (centres undefined),inactive: 107%
18,Cc1ccc(-n2c(O)c(C=NC3CCS(=O)(=O)C3)c3ccccc3c2=O)c(C)c1 (centres undefined),inconclusive: -25.4%
19,COC(=O)c1cccnc1-n1c(=O)c2cccnc2n(Cc2cccc([N+](=O)[O-])c2)c1=O,inconclusive: 106%
20,CC(C)(C)n1cc(S(=O)(=O)c2ccccc2)[nH]c1=O,inactive: 102%
21,O=C(CNc1ccccc1C(=O)O)c1ccccc1,inconclusive: 93.9%
22,CCN1C(=O)/C(=C/c2ccc(N3CCCC3)cc2)NC1=S,inactive: 126%
23,CCN(CC)S(=O)(=O)c1cc(C(=O)Oc2cccc(-c3cnc4ccccc4n3)c2)ccc1Br,active: -8.52%

row,Structure (SMILES),binding response (% of control)
1,O=C(NNC(=O)c1ccc(Cl)cc1Cl)c1cnccn1,inconclusive: 98.7%
2,O=C(O)Cc1ccc(NC(=O)c2ccc(Cl)c(Cl)c2)cc1,inconclusive: 104%
3,O=C(Nc1ccccc1Cl)c1cccc(COc2cc(Cl)ccc2Cl)c1,inactive: 97.5%
4,CNS(=O)(=O)c1cc(Cl)ccc1Sc1ccccc1C(=O)O,inconclusive: 121%
5,COc1ccc(C2c3ccc(O)cc3Oc3ncn4nc(-c5ccncc5)nc4c32)cc1OC (centres undefined),inconclusive: 94.2%
6,CC(Nc1ccccc1)c1ccncc1 (centres undefined),inconclusive: 96.9%
7,CCOC(=O)C1C(=O)OC(C)(C)C1C(C)C(=O)c1ccc(C)cc1C (centres undefined),inconclusive: 98.7%
8,Cc1cc(NC(=O)c2ccccc2F)nc2c1c(=O)oc1ccccc12,inactive: 101%
9,CCN(CC)Cc1cc(C(=O)O)c(-c2ccccc2)o1,inconclusive: 115%
10,O=C(CSC1CC(=O)N(c2ccc(C(=O)O)cc2)C1=O)Nc1ccc(Cl)cc1 (centres undefined),active: 241% [activator]
11,CC(C)(C)c1cc(NC(=O)NN2CCOCC2)nn1-c1c(Cl)cc(Cl)cc1Cl,inconclusive: 49.9%
12,N#Cc1c(Cl)cccc1Oc1ccc(S(=O)(=O)Nc2ccccc2)cc1,inconclusive: -1.93%
13,O=C1[C@@H]2C(c3cccnc3)=NO[C@@H]2C(=O)N1c1ccc(Br)cc1,inconclusive: 56.5%
14,COCC1CCN(Cc2cn[nH]c2-c2ccc(OC)c(F)c2)C1 (centres undefined),inconclusive: 98.3%
15,O=C(NCCCN1CCN(c2ccc(F)cc2)CC1)c1cccc(N2CCCC2=O)c1,inactive: 89.1%
16,CCC(=O)NC1(C(F)(F)F)C(=O)Nc2c1c(=O)[nH]c(=O)n2CC(C)C (centres undefined),inconclusive: 92.1%
17,COC(=O)c1ccccc1NC(=O)NC1CCCCC1,inconclusive: 80.8%
18,CC1=CC=CC2=N/C(=N\S(=O)(=O)c3ccc(F)cc3F)c3ccccc3CN12,inactive: 101%
19,COC(=O)c1ccc(CN(c2ccc(C)cc2)S(=O)(=O)c2ccc3c(c2)OCCO3)o1,inactive: 109%
20,Cc1cc([N+](=O)[O-])cc(/C=N\NC(=O)C2COc3ccccc3O2)c1O (centres undefined),inconclusive: 101%
21,CC(=O)Nc1ccc(Nc2nc(C)c([N+](=O)[O-])c(N(C)c3ccccc3)n2)cc1,inconclusive: 230%
22,Cc1ccc(NC(=S)NC(=O)c2ccccc2)cc1NC(=S)NC(=O)c1ccccc1,inconclusive: 54.2%
23,C/C(=N\NC(=O)CSc1nc(C)[nH]c1[N+](=O)[O-])c1ccc(F)cc1,inconclusive: 21.9%

# 17 entries from above, set out differently.
row	Structure (SMILES)	binding response (% of control)
7	CCOC(=O)C1C(=O)OC(C)(C)C1C(C)C(=O)c1ccc(C)cc1C (centres undefined)	inconclusive: 98.7%
8	Cc1cc(NC(=O)c2ccccc2F)nc2c1c(=O)oc1ccccc12	inactive: 101%
9	CCN(CC)Cc1cc(C(=O)O)c(-c2ccccc2)o1	inconclusive: 115%
10	O=C(CSC1CC(=O)N(c2ccc(C(=O)O)cc2)C1=O)Nc1ccc(Cl)cc1 (centres undefined)	active: 241% [activator]
11	CC(C)(C)c1cc(NC(=O)NN2CCOCC2)nn1-c1c(Cl)cc(Cl)cc1Cl	inconclusive: 49.9%
12	N#Cc1c(Cl)cccc1Oc1ccc(S(=O)(=O)Nc2ccccc2)cc1	inconclusive: -1.93%
13	O=C1[C@@H]2C(c3cccnc3)=NO[C@@H]2C(=O)N1c1ccc(Br)cc1	inconclusive: 56.5%
14	COCC1CCN(Cc2cn[nH]c2-c2ccc(OC)c(F)c2)C1 (centres undefined)	inconclusive: 98.3%
15	O=C(NCCCN1CCN(c2ccc(F)cc2)CC1)c1cccc(N2CCCC2=O)c1	inactive: 89.1%
16	CCC(=O)NC1(C(F)(F)F)C(=O)Nc2c1c(=O)[nH]c(=O)n2CC(C)C (centres undefined)	inconclusive: 92.1%
17	COC(=O)c1ccccc1NC(=O)NC1CCCCC1	inconclusive: 80.8%
18	CC1=CC=CC2=N/C(=N\S(=O)(=O)c3ccc(F)cc3F)c3ccccc3CN12	inactive: 101%
19	COC(=O)c1ccc(CN(c2ccc(C)cc2)S(=O)(=O)c2ccc3c(c2)OCCO3)o1	inactive: 109%
20	Cc1cc([N+](=O)[O-])cc(/C=N\NC(=O)C2COc3ccccc3O2)c1O (centres undefined)	inconclusive: 101%
21	CC(=O)Nc1ccc(Nc2nc(C)c([N+](=O)[O-])c(N(C)c3ccccc3)n2)cc1	inconclusive: 230%
22	Cc1ccc(NC(=S)NC(=O)c2ccccc2)cc1NC(=S)NC(=O)c1ccccc1	inconclusive: 54.2%
23	C/C(=N\NC(=O)CSc1nc(C)[nH]c1[N+](=O)[O-])c1ccc(F)cc1	inconclusive: 21.9%

# Later entries

row,Structure (SMILES),binding response (% of control)
1,N#Cc1c2ccc(O)cc2n2ccccc12,inconclusive: 82.2%
2,N/C(=N\O)c1ccc(Oc2ccccc2Cl)c([N+](=O)[O-])c1,inconclusive: 108%
3,CCOC(=O)c1sc(NC(=O)c2ccccc2C(=O)O)c(C(=O)OCC)c1C,inconclusive: 50.4%
4,S=C(Nc1ccccc1Cl)N1CCCC(c2ccccc2)=N1,inconclusive: 94.7%
5,O=C(Cn1nc(-c2ccccc2)ccc1=O)Nc1ccc(N2CCN(C(=O)c3cccs3)CC2)cc1,inactive: 102%
6,COc1ccc(NC(=S)Nc2cccc(C)n2)cc1,inconclusive: -44.9%
7,CC(=O)OCc1ccccc1Sc1ccccc1C(=O)NCc1ccccc1,inconclusive: 139%
8,O=C(Oc1c(CN2CCOCC2)cc(Cl)c2cccnc12)c1ccccc1Cl,inconclusive: 116%
9,[O-]/C(=C(\C(=S)NCCN1CCOCC1)[n+]1ccccc1)c1ccc(Cl)s1,inconclusive: 89.1%
10,Cc1ccc(N2CC(=O)Nc3c(oc4nc(-c5ccccc5)cc(C)c34)C2=O)cc1,inconclusive: 108%
11,O=C(Nc1ccc(F)cc1)NC1CCN(Cc2c(F)cccc2Cl)CC1,inconclusive: 110%
12,O=C(Nc1ccc2[nH]ccc2c1)c1cccs1,inconclusive: 95.1%
13,CCc1ccc[n+](-c2nc3ccccc3nc2C(=C=[N-])C#N)c1,inconclusive: 77.4%
14,O=C(COc1ccccc1)N1CCc2ccccc2C1,inactive: 103%
15,CCCCN(CC)Cc1ccc(CNC(=O)Nc2ccc(Cl)cc2)o1,inactive: 103%
16,CCOC(=O)Cc1csc(NC(=O)Nc2ccc(C)cc2)n1,inconclusive: 107%
17,COc1ccc(C2C(C(=O)NCc3ccccn3)CCC(=O)N2c2cc(OC)c(OC)c(OC)c2)cc1 (centres undefined),inactive: 99.6%
18,O=S(=O)(NCC1CCCO1)c1ccc(-c2ccc(Cl)cc2)cc1 (centres undefined),inconclusive: 103%
19,CCN(CC)CC(=O)Nc1ccc(-c2ccc(NC(=O)CN(CC)CC)c(OC)c2)cc1OC,inconclusive: 77.9%
20,CC(OC(=O)c1ccccc1O)C(=O)Nc1cccc(Cl)c1 (centres undefined),inconclusive: 89.2%
